According to paper PMC5587910, “Methionine Sulfoxide Reductase A (MsrA) and Its Function in Ubiquitin-Like Protein Modification in Archaea” (mBio, 2017):

T1: Flag-SAMP1 S85R (Haloferax volcanii) (UniProt D4GUF6)
T1 sequence: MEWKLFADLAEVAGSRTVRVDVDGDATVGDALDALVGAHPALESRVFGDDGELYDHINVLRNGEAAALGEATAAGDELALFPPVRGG

B1: AAA ATPase Cdc48d (protein, UniProt D4GTE0 1-474)
chain: MSERALEVVEFLLTAHLYTDDRTLDENDLPPRYRRVFWADAEDDGDEDDSSAAGIERPLVVTESVARKATGVEHPWDAISDLMFTQREEFSGRLSLTQPEMALEWFVKRADYDRLVTNPTVAKSVEDRDDVDVTHADAREQTRPIHADRVWIDSLLDEYFDDEDDAEMLDLVQVRAPEEIEMTLDDLVLTTDQEGEIHKLMKAIEHREYLADIGLREIGKILFVGPPGTGKTTVSRALAHELGLPFVEVKLSMITSQYLGETAKNVEKTFEVAKRLSPCILFIDEFDSVAKTRRSDEHAALKRAVNTLLKSIDDISLIRDEVILIGATNHPDQLDSAAWRRFDEIVNFPKPDRGMRADILRVITNRMDIDEFDPSAIADVTEGLTGSDLRLVLREAVLEALTEERMELTQDDLLEAVADFEERDNLKNLDMMSDSSELVAGAGSGSDDGHDHSHDHDHTDEHEGETQKDAGAAQ
B2: Aspartate-tRNA (Asp/Asn) ligase AspS (protein, UniProt O24822 1-433)
chain: MRNRTYTADAEPGDTVTVAGWVHEVRDLGGIAFLILRDTSGKIQVKFEKDEMDDDLVETGLGVHRESVISVTGEVDEEPRAPTGVEVTPESLDVIAEAEAQLPLDPSGKVDAELSTRLDNRTLDLRKDEVKAIFEIRAEVQRAVRDKFRDLRATEINTPKIVATGTEGGTELFPITYFGQEAFMNQSPQLFKQLMVGSGLERVFEVGPIFRAEEHNTPRHLNEATSIDFESAFIDHTEAMDVCEAVVTAAYEAVEENCQDELEALGLEEEFERRPRVPAAHLRGGHRAHQRTGELDEQLVWGDDLPTEGEKALGEDVGEHYFITDWPSEIKPFYIKDHDDDETLSTGFDMMHPNMELVSGGQREHRFDHLVAGFEQQGLDPDAFEYYTKMFKYGMPPHAGFGLGGERLIMTMLGLENIREAVLFPRDRQRLSP
B3: Small archaeal modifier protein 3 (protein, UniProt D4GVB0 1-92)
chain: MELELRFFATFREVVGQKSIYWRVDDDATVGDVLRSLEAEYDGLAGRLIEDGEVKPHVNVLKNGREVVHLDGMATALDDGDAVSVFPPVAGG
B4: Pyruvate-ferredoxin oxidoreductase, subunit beta (protein, UniProt D4GXE9 1-312)
chain: MSAFSAIGEETEQDQNEFTPGLEPQPTWCPGCGDFGVLKALKGAAAELGLSPDEMMVTTGIGCSGKLNSYFNSYGFHTIHGRSLPIARAAKLANPGLTVVAAGGDGDGYGIGGNHFMHTARENHDITYIVFNNEIFGLTKGQTSPTSPMGHKSKTQPHGSAKTPLRPLSMSLNAGASYVARTAAVNPNQAKDIIVEAIQHDGFSHVDFLTQCPTWNKDARQYVPYIDINDSDDYEFDNTNRSEASEMMFETENALHEGTVLTGRYYVDEDRPSYQQEKQRIGEMPEEPLAERYFDDSYEWERTFDNFLDKHK
B5: Probable urocanate hydratase HutU (protein, UniProt D4GRM3 1-620)
chain: MHDQQSSARRDRLGDPSDEWRAYQGAPTGTDIECKGWRQEAALRMLNNNLDPEVAERPEDLVVYGGTGRAARSWDAYDAILTELRDLDDDETLLVQSGKPVGTFPTHERAPRVLIANSNLVGRWDDWEHFHELEAEGKIMYGQMTAGSWAYIGTQGIIQGTYETLAELARQRYDADLRGKLVVTGGLGGMSGAQPLAVTMNRGVCIAAEVQADRIERRVETDYLMEFADSLDEALENANAAIDAGEPYSVGVQMNAADMLEELLARDEIPDVVTDQTSAHDELEGYYPSGYTVAEADRLREDDPEKYVDASLDTMERHVQAILDLQDAGAIAFEYGNNIRGQVQNHRGMTTAFDFPGFVPAYIRPMFCRGRGPFRWAALSGDPADIHRTDEAIRELFPEHESLMRWIDLAQEQVSFQGLPSRVCWLGYATDDEGLTERARFALKINDLVASGEVSAPVVVTRDHLDAGSVASPYRETEAMRDGTDAVADWPILNALLNTAAGADIVSVHDGGGVGIGNSLHANNHVVLDGSDLAAKKARAVFTTDPGMGVIRHADAGYEDALDEATRSNVRIPMRDHDAAARTERSERSERSERADRADRTAEDGGHATETGESAGRGDE
B6: Type 2 DNA topoisomerase 6 subunit B (protein, UniProt D4GZ00 1-798)
chain: MTSFQSTLGDEPGIAEELAKGQREISIAEFFEKNKHMLGFDSGARGLVTAVKEAVDNALDATEEAGIQPDIYVEIAEAGDYYRLVIEDNGPGITKEQVPKVFGKLLYGSRFHAREQSRGQQGIGISAAVLYSQLTSGKPAKVTSRTQGSEDAEYFELVINTDQNEPEIRTEKTTSWDRPHGTRIELEMEANMRARQQLHDYILHTAVVNPHARIELREPGLDEPMKFERATDQLPKQTKEIRPHPHGVELGTLLKMLSATESYSVSGFLQEEFTRVGAKTSDKIHDAFRDRHFGREMTWRTPDASEADDLVAVVEDAVANKGKEATAAFADELVDIVVGKDRIAHGELVTVVENAAETVGEDTDTSFGETVRENVVEALWPALTDDREGDAYAIVDDVTTTQKDDAGKLSMARSIATQFAETTGPADRATRDDVAEFVSWAADRTKEREDETYGETAQENIADAIWSRMRTVSDEVPKVREVADDRDVARDLLDAMRETDILAPPTDCLSPISAELVEAGLKKEFDADFYAAATRDAEVHGGDPFIVEAGIAYGGELKSEGKIDLLRFANRVPLVYQQGACTITHVVKDIGWRNYGLDQPGGSGMPNGPAVLMVHVASTNVPFTSESKDALADVPAIQDEVELAIREAARDLKSYLSKRRSLQKRREKQDVLGRILPQMATKLSEVTGRPEPNIDGALGRIMNNLTVERAVDDGEVTLTVTNHSNTNESPDITDIVSAEPGGLDGEATVVGLDGEWFVKWNPEVPSGETATLTYSVAQDASFDINVDGVETEKLTVNV
B7: Acetyl-CoA C-acyltransferase AcaB4 (protein, UniProt D4GRI4 1-387)
chain: MRDAYIVGAGQSKYGAFPDESYRSLFATAFEEALGSAGGVEAADIDEAVVGSLGVGGRQLGLSGPAVTEHVGLHGVPCSRIENACAASGYAVRQAVQAVKSGMADVALAGGYEVMTDTSGDVAKYWLGVSGETEWERLTGTTFAGVYAQIASAYLDAYDASPDHFSKVAVKNHANGAKNPKAHLGFECSLDDARSAPVVADPLNLYHCCPTSDGAAAVLVASEGVANACDDAVRVAGVGAASERVGLFQRDSYTAVESSERAAAAAYEMAGLGPDDVDFAEVHDCFAIAELLAYEDLGFCERGHAPELVDSGATELGGDLPVNPSGGLKSKGHPIGATGAGQVVEAFKQLTGRAGDRQVAGASVGLTHNVGGSGGAAVVHVLEGGAL
B8: Thermosome subunit 2 (protein, UniProt O30560 1-557)
chain: MSQRMQQGQPMIIMGEDAQRVKDRDAQEYNIRAARAVAEAVRSTLGPKGMDKMLVDSMGDVTITNDGVTILKEMDIDNPTAEMIVEVAETQEDEAGDGTTTAVAIAGELLKNAEDLLEQDIHPTAIIRGFNLASEKAREEIDDIAERVDPDDEELLKKVAETSMTGKSSELNKELLADLIVRAVRQVTVEANDGSHVVDLENVSIETQTGRSASESELLTGAVIDKDPVHDDMPVQFDEADVLLLNEPVEVEETDIDTNVSIESPDQLQKFLDQEEAQLKQKVDQIVDSGADVVFCQKGIDDLAQHYLAKQGILAVRRTKKSDIRFLKNITGAAVVSDLDSIEAAVLGRASVRRDEAGELFYVEGIGDDVHGVTLLLRGSTDHVVDELERGVQDALDVVASTVADGRVLAGGGAIEVELASRLRNYADSVSGREQLAVEAYADALELVPRVLAENAGLDSIDTLVDLRAAHEDGQVRAGLNVFTGEVEDAFDAGVVETAHAKEQAVASASEAANLVLKIDDIIAAGDLSTGGDDDEEGGAPGGMGGMGGMGGMGGAM
B9: Chaperone protein DnaK (protein, UniProt Q1XBW2 1-625)
chain: MASNKILGIDLGTTNSAFAVMEGGDPEIIVNAEGDRTTPSVVAFTDDGERLVGKPAKNQAIQNPERTIRSIKRHMGEDGYTVDIEGEEYTPEQISAMILQKIKRDAEDYLGDELQKAVITVPAYFNDKQRQATKDAGEIAGLDVERIVNEPTAASMAYGLDDESNQTVLVYDLGGGTFDVSVLDLGGGVYEVVATNGDNDLGGDDWDEAIIEWLATEFENDHGIDLREDRQALQRLKDAAEEAKIELSSRKETTINLPFITATDSGPVHLEYDLTRAKFESLTADLIDRTVEPTEQALEDAGYDKGDIDDVILVGGSTRMPQVRDKVEELLGSEPKKSVNPDEAVALGAAIQGGVLGGEVDDIVLLDVTPLSLGIEVKGGLFERLIEKNTTIPTEESKIFTTAADNQTTVQVRVFQGEREMAEDNELLGEFTLSGIPPAPAGTPQIEVGFNIDENGIVNVSAEDKGSGNAESITIEGGAGLSDEEIDRMQQEAEQHAEEDKERRRAVEARNEAEGAVQRAETLLEENEENVDDELRADIEAAVEDVEAVLEDDDASTDELEDVTEELSKELQEIGKRMYQQQAQAQAGGPGGAGAGAGAAGGPGGADPEDFVDADADFDEDDEDN
B10: AAA-type ATPase (CDC48 subfamily) Cdc48a (protein, UniProt D4GWM8 1-743)
chain: MNEVQLEVAKAYPNDSGRGIARLDPDTLLHLKLSPGDIIEIEGGKTTAAKVWRADRQDWNTDTVRIDGFTRQNADVGIGERVTIRKAEATKADKLVLAPPEEASVQFGSDAAGMVKRQILKRPVVERDIVPVMSSTNHPFMRSPGQAIPLIAVETKPEGVVLVTEDTDVELREEPISGFEKAGGGITYEDIGGLTNEIQRVREMVELPMKHPQIFKKLGIEPPQGVLLHGPPGTGKTLLARAVANETSASFFSIAGPEIISKYYGESEQQLREIFEDAKEESPSIIFIDELDSIAPKREDVTGEVERRVVAQLLTMMDGLEARGQVIVIAATNRVDSVDPALRRPGRFDREIEIGVPDEEGRKEILQIHTRGMPLSDDVDLDDLADDTHGFVGADIEALTKEAAMKALRRYLPEIDLDREDIPPSLIDRMVVKNDDFGGALGEVEPSAMREVLVEIPKVTWNDVGGLEGPKQKVQESVEWPLTTPEKFQRMGIEAPKGVLLYGPPGTGKTLIAKAVANETNANFISVRGPQLLSKWVGESEKAIRQTFRKARQVSPTIIFFDELDALAPARGNDMGNNVSERVVNQLLTELDGLEDAGNVMVIAATNRPDMIDPALIRSGRFDRLVLIGQPEEEGREQILDIHTQQSPLAPDVSLREIAEITDGYVGSDLESICREAAIEALREDSDAEEIEMRHFRKAMESVRPTITEELMRYYEDIQDQFKGGSREGLSPDTRDGGRIGFQ

What follows are molecules tested against T1, Flag-SAMP1 S85R (Haloferax volcanii) (assay: affinity purification with mass spectrometry; Flag-SAMP1 S85R expressed in Hfx. volcanii H26 (parent) grown with 100 mM DMSO; lysate (2 M NaCl, 1% Triton X-100, 1 mM EDTA) on anti-Flag M2 beads, washed in TBS, eluted with 3x Flag peptide; reducing SDS-PAGE, gel regions of 30 to 45 and 60 to 200 kDa analysed by LC-MS/MS; ΔmsrA strain in …).

binding, binds:
Methionine-S-sulfoxide reductase MsrA (Haloferax volcanii (endogenous in H26)) (enzyme)
Peptidase S9, prolyl oligopeptidase active site domain protein (Haloferax volcanii (endogenous in H26))
Aldehyde dehydrogenase AldH2 (Haloferax volcanii (endogenous in H26))
Ferritin related (IPR012347) protein (Haloferax volcanii (endogenous in H26))
B1
B2
B3
B4
B5
B6
B7
B8
B9
B10

No constants are given. Whether binding was seen depends on the method and setting. Binding seen in cells or lysates may run through a third protein. A yes stands for co-enrichment or nearness to the bait. Other partners may have been found. Sequences can lack the tags named with a protein.
